Data from patent publication US20250304673A1 (CATALYM, published 2025).
No constants are given. Whether binding was seen depends on the method and setting. Binding calls can cover weak binding; strength is not graded here.

What was measured:
[1] = biological target: rat GDF-15 (rat); assay: SPR
[2] = biological target: mouse GDF-15 (mouse); assay: SPR

- binding [1]: binds
- binding [2]: binds
B1: CTL-002 (antibody, human IgG4 S228P, kappa, V domains shown)
VH: QITLKESGPTLVKPTQTLTLTCTFSGFSLSTSGMGVSWIRQPPGKGLEWLAHIYWDDDKRYNPTLKSRLTITKDPSKNQVVLTMTNMDPVDTATYYCARSSYGAMDYWGQGTLVTVSS
VL: DIVLTQSPSFLSASVGDRVTITCKASQNVGTNVAWFQQKPGKSPKALIYSASYRYSGVPDRFTGSGSGTEFTLTISSLQPEDFAAYFCQQYNNFPYTFGGGTKLEIKR
notes: Humanized, hinge-stabilized IgG4 (IgG4 S228P) derived from mouse antibody B1-23; captured by anti-human IgG Fc on the chip in the SPR assay; also called visugromab; CTL-001 IgG4*
